Source: paper doi:10.1101/2025.08.22.671827
Results are given in words; binding and its absence hold for the method and conditions named. In cells and extracts the contact can be indirect. A result given as binding can be weak or reduced; the word gives no strength.

The chains behind the UniProt entries cited, without tags or fusion partners. Where a name states a change or a piece, a line headed by the entry shows the natural chain unless it says otherwise.
UniProt P39524: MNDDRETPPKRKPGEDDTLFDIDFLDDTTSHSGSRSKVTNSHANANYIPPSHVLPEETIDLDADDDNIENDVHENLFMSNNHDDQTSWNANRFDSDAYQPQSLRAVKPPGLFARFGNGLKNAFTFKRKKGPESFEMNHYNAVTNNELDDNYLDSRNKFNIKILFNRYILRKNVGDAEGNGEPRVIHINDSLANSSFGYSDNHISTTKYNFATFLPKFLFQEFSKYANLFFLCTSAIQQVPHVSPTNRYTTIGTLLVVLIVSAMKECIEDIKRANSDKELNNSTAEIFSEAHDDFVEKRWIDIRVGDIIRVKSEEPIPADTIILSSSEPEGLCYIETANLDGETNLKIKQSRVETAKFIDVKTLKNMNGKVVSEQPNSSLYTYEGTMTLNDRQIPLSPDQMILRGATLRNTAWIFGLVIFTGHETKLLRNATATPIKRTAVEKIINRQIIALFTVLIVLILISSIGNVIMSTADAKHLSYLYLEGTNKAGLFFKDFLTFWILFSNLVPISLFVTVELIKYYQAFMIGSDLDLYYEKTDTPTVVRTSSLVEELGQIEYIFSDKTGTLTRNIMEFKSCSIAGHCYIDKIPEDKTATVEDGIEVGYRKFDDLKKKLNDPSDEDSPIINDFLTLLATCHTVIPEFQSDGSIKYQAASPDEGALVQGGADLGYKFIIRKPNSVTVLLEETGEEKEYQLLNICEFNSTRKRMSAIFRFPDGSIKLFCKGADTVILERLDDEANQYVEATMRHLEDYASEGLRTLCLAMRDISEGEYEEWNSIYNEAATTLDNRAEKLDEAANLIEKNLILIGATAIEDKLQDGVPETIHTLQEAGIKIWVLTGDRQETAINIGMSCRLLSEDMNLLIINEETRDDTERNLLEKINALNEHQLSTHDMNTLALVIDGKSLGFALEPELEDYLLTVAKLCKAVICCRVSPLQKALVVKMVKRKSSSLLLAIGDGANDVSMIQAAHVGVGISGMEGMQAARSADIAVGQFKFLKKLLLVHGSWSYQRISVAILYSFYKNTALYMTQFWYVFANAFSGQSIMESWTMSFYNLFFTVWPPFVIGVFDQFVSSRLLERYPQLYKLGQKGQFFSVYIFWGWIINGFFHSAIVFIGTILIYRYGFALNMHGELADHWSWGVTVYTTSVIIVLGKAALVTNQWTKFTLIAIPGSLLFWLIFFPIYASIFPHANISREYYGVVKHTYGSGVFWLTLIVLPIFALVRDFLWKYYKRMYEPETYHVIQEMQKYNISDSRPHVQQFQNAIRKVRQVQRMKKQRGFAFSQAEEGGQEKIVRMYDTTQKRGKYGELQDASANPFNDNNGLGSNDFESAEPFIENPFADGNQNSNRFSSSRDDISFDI

Key:
cryo-EM structure = compound: ΔNC Drs2 (residues 104-1247) (yeast) (UniProt P39524); test: cryo-EM structure
pull-down + SEC [1] = substrate: ΔNC Drs2 (residues 104-1247) (yeast) (UniProt P39524); test: pull-down + SEC
pull-down + SEC [2] = substrate: ΔNC Drs2^E342Q (yeast) (UniProt P39524); test: pull-down + SEC

Measured: binding

B1: Cdc50 (protein, UniProt P25656 1-391)
chain: MVSLFKRGKAPPLTKEGPTSKKPPNTAFRQQRLKAWQPILSPQSVLPLLIFVACIFTPIGIGLIVSATKVQDLTIDYSHCDTKASTTAFEDIPKKYIKYHFKSKVENKPQWRLTENENGEQSCELQFEIPNDIKKSIFIYYKITNFYQNHRRYVQSFDTKQILGEPIKKDDLDTSCSPIRSREDKIIYPCGLIANSMFNDTFSQVLSGIDDTEDYNLTNKHISWSIDRHRFKTTKYNASDIVPPPNWMKKYPDGYTDENLPDIHTWEEFQVWMRTAAFPKFYKLTLKNESASLPKGKYQMNIELNYPISLFGGTKSFVLTTNGAIGGRNMSLGVLYLIVAGLCALFGIIFLVKLIFQPRAMGDHTYLNFDDEENEDYEDVHAENTTLREIL
binds: all assays above
